Percent effect of library compounds

Chains of the proteins cited; added tags and fusions are not shown. Residues count along the entry.
UniProt A4I591, 1-473: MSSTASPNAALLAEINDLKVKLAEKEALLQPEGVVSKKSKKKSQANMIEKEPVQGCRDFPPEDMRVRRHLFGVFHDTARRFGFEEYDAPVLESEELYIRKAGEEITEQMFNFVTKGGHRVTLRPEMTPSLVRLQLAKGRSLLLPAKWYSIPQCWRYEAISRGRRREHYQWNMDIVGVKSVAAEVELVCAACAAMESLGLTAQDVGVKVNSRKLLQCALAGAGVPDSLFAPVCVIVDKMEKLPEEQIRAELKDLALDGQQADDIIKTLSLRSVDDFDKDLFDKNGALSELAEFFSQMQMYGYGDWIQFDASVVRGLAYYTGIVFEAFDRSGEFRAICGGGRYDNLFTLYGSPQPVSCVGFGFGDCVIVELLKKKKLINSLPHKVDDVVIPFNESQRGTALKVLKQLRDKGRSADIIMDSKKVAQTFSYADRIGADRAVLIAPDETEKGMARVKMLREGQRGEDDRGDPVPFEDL
UniProt I6X8D2, whole entry: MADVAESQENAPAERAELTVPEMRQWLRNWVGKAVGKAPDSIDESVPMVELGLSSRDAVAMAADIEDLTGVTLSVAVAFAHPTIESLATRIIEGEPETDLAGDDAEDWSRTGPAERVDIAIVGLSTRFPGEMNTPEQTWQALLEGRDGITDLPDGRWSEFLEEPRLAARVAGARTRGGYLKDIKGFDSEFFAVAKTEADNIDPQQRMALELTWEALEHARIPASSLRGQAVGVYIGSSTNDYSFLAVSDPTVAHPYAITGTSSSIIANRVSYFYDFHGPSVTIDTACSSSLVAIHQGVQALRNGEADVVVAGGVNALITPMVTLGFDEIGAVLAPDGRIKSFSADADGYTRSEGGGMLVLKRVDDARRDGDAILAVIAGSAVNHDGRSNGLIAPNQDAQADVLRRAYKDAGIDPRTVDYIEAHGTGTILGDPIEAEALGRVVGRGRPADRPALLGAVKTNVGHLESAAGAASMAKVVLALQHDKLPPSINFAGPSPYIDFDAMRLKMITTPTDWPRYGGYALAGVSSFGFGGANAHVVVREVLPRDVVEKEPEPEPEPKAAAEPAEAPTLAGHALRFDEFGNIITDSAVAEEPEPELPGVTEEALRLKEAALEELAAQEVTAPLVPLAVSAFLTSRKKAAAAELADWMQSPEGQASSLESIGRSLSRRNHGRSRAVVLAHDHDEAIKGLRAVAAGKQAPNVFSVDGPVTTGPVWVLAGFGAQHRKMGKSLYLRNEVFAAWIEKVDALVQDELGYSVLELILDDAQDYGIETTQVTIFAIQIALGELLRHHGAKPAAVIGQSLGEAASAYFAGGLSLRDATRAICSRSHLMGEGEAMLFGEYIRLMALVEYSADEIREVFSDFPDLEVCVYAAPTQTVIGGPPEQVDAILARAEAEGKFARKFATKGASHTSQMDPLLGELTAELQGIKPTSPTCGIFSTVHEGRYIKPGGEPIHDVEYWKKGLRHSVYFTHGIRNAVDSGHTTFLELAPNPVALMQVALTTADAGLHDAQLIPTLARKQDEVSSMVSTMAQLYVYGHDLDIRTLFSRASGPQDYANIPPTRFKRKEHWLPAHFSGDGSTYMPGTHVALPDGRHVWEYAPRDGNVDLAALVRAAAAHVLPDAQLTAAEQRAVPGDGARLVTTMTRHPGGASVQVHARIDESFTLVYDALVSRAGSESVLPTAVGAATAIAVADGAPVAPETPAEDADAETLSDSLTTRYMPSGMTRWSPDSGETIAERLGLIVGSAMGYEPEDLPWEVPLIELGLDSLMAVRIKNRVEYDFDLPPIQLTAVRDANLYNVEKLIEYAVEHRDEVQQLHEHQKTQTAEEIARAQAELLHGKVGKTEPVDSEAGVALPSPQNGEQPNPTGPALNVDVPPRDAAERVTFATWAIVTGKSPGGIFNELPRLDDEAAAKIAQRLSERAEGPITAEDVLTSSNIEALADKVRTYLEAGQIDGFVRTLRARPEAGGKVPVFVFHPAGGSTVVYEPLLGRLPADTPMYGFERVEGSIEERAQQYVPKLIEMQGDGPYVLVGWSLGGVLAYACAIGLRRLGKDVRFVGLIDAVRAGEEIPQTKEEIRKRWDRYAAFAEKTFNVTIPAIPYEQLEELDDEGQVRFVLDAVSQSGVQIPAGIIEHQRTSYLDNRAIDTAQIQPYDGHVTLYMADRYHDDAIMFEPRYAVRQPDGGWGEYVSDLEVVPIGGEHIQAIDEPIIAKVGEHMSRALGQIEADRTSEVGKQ

Measurements from “University of Dundee, Small-Polar-MMV Screening Library” (2021), ChEMBL document CHEMBL3988442.

The filed quantity is “Percent Effect” (%).
The record does not define 0% and 100%; most values in the screen are far below 50% and negative numbers occur (in some assays of this library far below -100).
Compounds were drawn at random from those tested, without regard to their results.
Two or more numbers in one place are separate tests of the same structure; such repeats can differ widely.
A dash means the value is not listed here; it may have been measured.

Leishmania in macrophages: 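Cell assay of Leishmania donovani living inside macrophages; the read-out is not stated. Compounds at 30 µM. The record gives no direction; compounds that gave an IC50 in retests scored well above the rest, so higher reads as stronger inhibition. Of about 69,000 compounds tested this way, about 1,000 (1.5%) reached 50% or more in at least one test.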
LiHisRS: 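Histidine-tRNA ligase, Leishmania infantum (UniProt A4I591). Enzyme assay of histidyl-tRNA synthetase; the read-out is not stated. Compounds at 30 µM. Direction is inferred from retests: higher values go with stronger inhibition. The assay is labelled LdHisRS but filed under L. infantum. Size under these conditions: about 69,000 compounds, about 410 of them at 50% or above in at least one test.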
Pks13 thioesterase: 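Enzyme assay of the thioesterase domain of polyketide synthase 13; the read-out is not stated. Target: Polyketide synthase Pks13, Mycobacterium tuberculosis (UniProt I6X8D2). Tested at 30 µM. Higher reads as stronger inhibition (inferred from which compounds were picked for retests). Size under these conditions: about 67,000 compounds, about 300 of them at 50% or above in at least one test.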

structure,Leishmania in macrophages,LiHisRS,Pks13 thioesterase
Cn1c(CO)cnc1SC1CCCN(c2ccccc2F)C1=O (stereo unspecified),18.46%,12.68%,-51.28%
c1ccc(-n2ncc(CN3CCCC(Cn4cncn4)C3)n2)cc1 (stereo unspecified),19.37%,23.48%,-17.06%
Cc1cccc(CN2CCCn3c(nnc3Cn3cccn3)C2)n1,-,4.425%,-1.49%
[H][C@@]12CCN(C(=O)c3cc(C)[nH]c3C)C[C@]1(c1nc(C)no1)CCO2,22.13%,-,-
Cc1cnn(CC2CCCN2Cc2cc(=O)n3cc(C)ccc3n2)c1 (stereo unspecified),29.39%,29.51%,99.9%
COCCNC(=O)[C@H]1CN(c2nnc(C)s2)C[C@H]2OCC[C@@H]12,-,5.109%,-39.81%
CCCOc1cc(CNC(=O)Nc2ccc(C)cc2)ccn1,22.29%,10.36%,-42.51%
CCc1cnc(N)nc1N[C@@H](C)c1ncccc1C,22.19%,33.73%,-27.72%
Cc1ncc(CNCC2CCCN2c2cccnn2)s1 (stereo unspecified),17.7%,27.03%,-9.501%
CC1COCCN1C(=O)Nc1cnc2c(cnn2C(C)C)c1 (stereo unspecified),13.26%,20%,9.551%
Cc1nccc(NCc2cncc3c2CCN(CCN(C)C)C3)n1,29.74%,11.82%,-16.17%
CN(C)CC1CSCCCN1S(=O)(=O)c1ccc(C(F)(F)F)cc1 (stereo unspecified),10.21% & -3.449%,8.696%,-12.51%
COc1cccc2c(=O)n(C3CCNCC3)cnc12,-2.147%,19.15%,-8.007%
Oc1cc(CC2COCCN(CC3(O)CCOCC3)C2)ncn1 (stereo unspecified),-21.42%,-15.6%,-9.142%
[H][C@@]12C[C@@H](c3nnc(C)[nH]3)O[C@]1([H])CN(C(=O)c1sccc1C)C2,16.44%,-,-
CC(C)(NS(C)(=O)=O)C(=O)NCc1cccc(Br)c1,22.3%,11.84%,-25.64%
COCCN1CCCCC12CC(=O)N(c1ccccc1OC)C2 (stereo unspecified),-,20.72%,6.272%
Cc1occc1C(=O)N1CCCN(Cc2cnn(C(C)C)c2)CC1,-0.0983%,16.13%,6.151%
[H][C@]12CCC(=O)N(C)[C@@]1(C)CCCCN2C(=O)CCc1cccnc1,-3.038%,-,-
Cc1noc(C)c1CN1CC[C@H]2[C@@H]1CCC(=O)N2CC1CCOCC1,-,11.32%,-4.23%
Cc1nccn1C1(C(=O)O)CCN(Cc2ccc3c(c2)OCCO3)CC1,5.438%,8.219%,-10.07%
Cc1cc(C)cc(OCCNC(=O)C(C)Sc2nncn2C)c1 (stereo unspecified),9.089%,15.38%,-31.89%
CCn1c(C)cc(C(=O)N2CCCC(n3nc(C)nc3C)C2)c1C (stereo unspecified),18.22%,8.511%,-9.23%
[H][C@]12CCN(C(=O)Nc3ccccc3C)CC[C@@]1([H])S(=O)(=O)N(CCOC)C2,14.28%,-,-
Cc1ccc(C(=O)NS(C)(=O)=O)cc1-n1cccc1,15.22%,30.14%,-10.37%
O=C(NCCn1ccnc1)N1CCCC1c1ccc2c(c1)OCCO2 (stereo unspecified),14.25%,6.481%,-32.23%
O=C1CCC2(CCCN(C(=O)c3ccc[nH]3)C2)CN1Cc1cccnc1 (stereo unspecified),-2.072%,12.5%,-22.98%
[H][C@@]12CCN(C(=O)CC(C)(C)C)C[C@]1([H])CCN(CCc1c[nH]cn1)C(=O)C2,6.176%,-,-
CCc1noc(CNC2CCCN(Cc3noc(C4CC4)n3)C2)n1 (stereo unspecified),7.548%,18.58%,-19.23%
Cc1ccc(CC(=O)N2CC[C@@H]3NC(=O)CC[C@@H]32)cc1,-,12.28%,-1.542%
CCc1nccn1C1CCCN(C(=O)c2ccc3c(c2)OCO3)C1 (stereo unspecified),-12.12%,0%,-18.22%
CN(Cc1cn2ccccc2c1C#N)C1CCCN(c2cccnn2)C1 (stereo unspecified),35.72%,37.5%,-17.31%
CC(NC(=O)NCCCN(C)S(C)(=O)=O)c1ccc(Cl)cc1 (stereo unspecified),9.28%,6.087%,-7.529%
O=C(c1cccc2cccnc12)N1CC[C@@]2(CCCO2)[C@@H](O)C1,28.53%,8.966%,0.4209%
CC(C)(O)CN1CCN(C(=O)c2cccc3cccnc23)CC1,11.35%,19.44%,-7.889%
CCc1nccc(CN2CCCC(c3nn(C)c(=O)n3CC)C2)n1 (stereo unspecified),4.369%,22.64%,-6.463%
CCC(C)n1cnc(S(=O)(=O)N(Cc2cccnc2)C(C)C)c1 (stereo unspecified),-21.72%,8.889%,-3.521%
CC(=O)c1cccc(OCCCC(=O)N(C)Cc2cscn2)c1,-2.108%,-4.11%,-
O=C(O)C(F)(F)F.[H][C@]12CCC(=O)N(c3cccnc3)[C@@]1([H])CCN2C(=O)c1ccc(C)o1,56.88%,-,-
Cn1cc(N2CCC3(CCCN(Cc4ccc(F)cc4)C3)C2=O)cn1 (stereo unspecified),-,21.1%,-14.26%
COCCN1CCC(NC(=O)C(C)C)CC1,31.82%,8.065%,-11.87%
CC(C)CO[C@@H]1CC[C@H]2[C@H]1OCCN2S(=O)(=O)C1CC1,-,13.89%,-19.74%
Cc1nn(C)c(C)c1CC(=O)NCc1ccnc(N2CCOCC2)c1,9.068%,-2.609%,-10.34%
CCC(CC)(CC)NC(=O)Nc1nnc(-c2ccccn2)s1,28.51%,9.677%,-24.13%
CC1CCCCN1C(=O)CCn1cnc2sccc2c1=O (stereo unspecified),-2.513%,6.25%,-9.385%
CC(Nc1nccc(CCC(F)(F)F)n1)c1nc(-c2ccccn2)no1 (stereo unspecified),16.49%,18.07%,-8.398%
[H][C@@]12CS(=O)(=O)C[C@]1([H])N(CCCOc1ccccc1)CCN2C(=O)N(C)C,33.54%,-,-
Cc1cc(C(=O)NC2(C#N)CCCC2)c(C)n1-c1cccnc1,-7.867%,10.42%,-17.1%
O=C(C1CCCO1)N1CCC(Cn2cc(C3CCCC3)nn2)CC1 (stereo unspecified),12.02%,15.5%,4.539%
COC(=O)CCC(=O)N1CCCC2(CCCN2Cc2cccc(F)c2)C1.O=C(O)C(F)(F)F (stereo unspecified),31.61%,-,-
CC(C)CS(=O)(=O)N1CCC2(CN(c3ccsc3)C(=O)CN2C)C1.O=C(O)C(F)(F)F (stereo unspecified),-17.05%,-,-

Repeated from the top, 6 entries:

- Cn1c(CO)cnc1SC1CCCN(c2ccccc2F)C1=O (stereo unspecified) : Leishmania in macrophages: 18.46%; LiHisRS: 12.68%; Pks13 thioesterase: -51.28%
- c1ccc(-n2ncc(CN3CCCC(Cn4cncn4)C3)n2)cc1 (stereo unspecified) : Leishmania in macrophages: 19.37%; LiHisRS: 23.48%; Pks13 thioesterase: -17.06%
- Cc1cccc(CN2CCCn3c(nnc3Cn3cccn3)C2)n1 : LiHisRS: 4.425%; Pks13 thioesterase: -1.49%
- [H][C@@]12CCN(C(=O)c3cc(C)[nH]c3C)C[C@]1(c1nc(C)no1)CCO2 : Leishmania in macrophages: 22.13%
- Cc1cnn(CC2CCCN2Cc2cc(=O)n3cc(C)ccc3n2)c1 (stereo unspecified) : Leishmania in macrophages: 29.39%; LiHisRS: 29.51%; Pks13 thioesterase: 99.9%
- COCCNC(=O)[C@H]1CN(c2nnc(C)s2)C[C@H]2OCC[C@@H]12 : LiHisRS: 5.109%; Pks13 thioesterase: -39.81%